Patent US8772274B1, “Anti-cancer compositions and methods” (The Penn State Research Foundation, priority 2008, dated 2014)
Structures can show the parent of a compound that is named as a salt. Some results were stated once for a whole list of compounds, not compound by compound. At least one compound was matched to its structure with a doubt left.

Tested on: UACC 903 tumors
Experiment: Apoptosis and proliferation rates in size and time matched tumors
Type: in vivo, nude mice
Conditions: Ki-67

N=C(N)[Se]CCc1ccc(CC[Se]C(=N)N)cc1 [PBISe, s,s′-1,4-phenylene-bis(1,2-ethanediyl)bis-isoselenourea dihydrobromide]
fold fewer proliferating cells than animals exposed to control DMSO: 2-3 fold
rates of cellular proliferation in tumors: 1-2%

Br.Br.N=C(N)SCCc1ccc(CCSC(=N)N)cc1 [PBIT, s,s′-1,4-phenylene-bis(1,2-ethanediyl)bis-isothiourea dihydrobromide, reference compound]
fold fewer proliferating cells than animals exposed to control DMSO: 2-3 fold
rates of cellular proliferation in tumors: 1-2%
